Test results from patent US20230220084A1.
These are yes or no findings as the source states them, for the method shown. Some binding calls cover weakened binding; strength is not graded here.

Columns and labels:
[1] = biological target: cCLEC12A-His (cynomolgus monkey); assay: SPR
[2] = biological target: cCLEC12A-His (cynomolgus monkey); assay: SPR, purified murine mAb
[3] = biological target: cCLEC12A-His (cynomolgus monkey); assay: SPR, purified murine mAb, Cyno CLEC12A-His

binding [1]: binds | binding [2]: binds | binding [3]: binds
B1: 15A10.G8 (antibody, V domains shown)
VH: EVQLQESGAELVRSGASIKLSCAASAFNIKDYFIHWVRQRPDQGLEWIGWIDPENDDTEYAPKFQDKATMTADTSSNTAYLQLSSLTSADTAVYYCNALWSRGGYFDYWGQGTTLTVSS
VL: EVLLTQSPAIIAASPGEKVTITCSARSSVSYMSWYQQKPGSSPKIWIYGISKLASGVPARFSGSGSGTYFSFTINNLEAEDVATYYCQQRSYYPFTFGSGTKLEIK
